Laboratory results published in patent US7910586B2, “Compositions and methods for prevention and treatment of amyloid-β peptide-related disorders” (The Rockefeller University, priority 2002, dated 2011).
Where a name gives a salt, the structure may show the parent alone. Some of these results come from one statement about several compounds together. For at least one compound, name, drawing or mass did not settle the structure.

System: rat embryonic cortical neurons
Experiment: Aβ production in rat primary embryonic cortical neuronal cultures
Type: cell-based
Details: time course, FIGS. 11 and 12
Text: Cultures of rat embryonic cortical neurons were established from day 18 pregnant SD rats using standard techniques (Gasparini et al., 2001, J. Neurosci. 21(8):2561-2570).
The next day, cells were labeled with ^35S-methionine and cysteine for four hours in the presence of compounds as above. Media and cells were then harvested and subjected to immunoprecipitation with antibody 4G8, to detect Aβ and APP. The media was serially immunoprecipitated first with antibody 4G8 and then antibody 22C11, for detection of secreted Aβ, sAPPP and sAPPα. Immunoprecipitates were subjected to PAGE and resolved by autoradiography; APP metabolites were compared by densitometry.

SMILES | time at which significant reductions in Aβ were observed [h]
CSc1cccc(Nc2ncc3cc(-c4c(Cl)cccc4Cl)c(=O)n(C)c3n2)c1 [Compound 1] | ≤ 6
Cc1ccc(NC(=O)c2ccc(CN3CCN(C)CC3)cc2)cc1Nc1nccc(-c2cccnc2)n1 [STI-571, imatinib mesylate, reference compound] | ≤ 6
